Results deposited as PubChem BioAssay AID1053208 (Peter MacCallum Cancer Centre, 2014)

- Purpose: 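Synthetic lethal interactions between gene loss and doxorubicin in osteosarcoma cells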 (primary screen)
- Cell system: mouse osteosarcoma cells, early-passage culture from an engineered mouse model of fibroblastic bone tumour
- Reagents: siRNA pool against mouse genes, 40 nM
- Timing: about 120 h (48 h before drug, then 72 h with drug)
- Challenge: doxorubicin 100 nM for 72 h, roughly 30-40% inhibitory dose
- Read-out: 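Luminescent ATP signal taken as viability with or without 100 nM doxorubicin for 72 h; mean of two wells set against non-targeting siRNA and turned into robust z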
- Scale: viability z-score with doxorubicin: higher = more viable cells under doxorubicin; viability z-score without drug: higher = more viable cells with knock-down alone
- Hit rule: 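a pool counts as active when its viability z-score with doxorubicin is -2 or below and its z-score without drug lies between -2 and 2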
Shown is a random part of about 17,000 reagents tested. Of all reagents, 788 (4.7%) got an active call. 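Calls rest on z-score classes alone; an extra cut-off of viability at most 70% of control was not applied to them.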 Reagents against one gene are numbered here. Some reagents were tested in more than one well and are listed for each. Not all columns of the deposit are shown. Reagent sequences are not shown.

What did the screen give for Prb1b #1?
combined z-score class: no change with or without drug; viability z-score with doxorubicin: 0.9; viability z-score without drug: 1.35; Call: inactive

With Prb1b #2, what does the deposit list?
combined z-score class: no change with or without drug; viability z-score with doxorubicin: -0.11; viability z-score without drug: 1.85; Call: inactive

For Dhrs2, what was measured?
combined z-score class: no change with or without drug; viability z-score with doxorubicin: -1.12; viability z-score without drug: 0.84; Call: inactive

How did the screen score Vma12?
combined z-score class: no change with or without drug; viability z-score with doxorubicin: -0.34; viability z-score without drug: -0.17; Call: inactive

For Galm, how do the results read?
combined z-score class: no change with or without drug; viability z-score with doxorubicin: 1.01; viability z-score without drug: 1.69; Call: inactive

For Srpx2, what does the deposit list?
combined z-score class: no change with or without drug; viability z-score with doxorubicin: -0.34; viability z-score without drug: -1.52; Call: inactive

What is on record for Npepl1?
combined z-score class: no change with or without drug; viability z-score with doxorubicin: -0.34; viability z-score without drug: -0.51; Call: inactive

How did the screen score Slc4a4?
combined z-score class: no change with or without drug; viability z-score with doxorubicin: -0.45; viability z-score without drug: -0.34; Call: inactive

Which result is listed for Bcap29?
combined z-score class: no change with or without drug; viability z-score with doxorubicin: -0.67; viability z-score without drug: -0.84; Call: inactive

Not a retest: an excerpt of the list.
Srpx2 — combined z-score class = no change with or without drug; viability z-score with doxorubicin = -0.34; viability z-score without drug = -1.52; Call = inactive
Npepl1 — combined z-score class = no change with or without drug; viability z-score with doxorubicin = -0.34; viability z-score without drug = -0.51; Call = inactive
Slc4a4 — combined z-score class = no change with or without drug; viability z-score with doxorubicin = -0.45; viability z-score without drug = -0.34; Call = inactive
Bcap29 — combined z-score class = no change with or without drug; viability z-score with doxorubicin = -0.67; viability z-score without drug = -0.84; Call = inactive

Additional results:
For Tnni3, what does the deposit list?
combined z-score class: no change with or without drug; viability z-score with doxorubicin: 0.22; viability z-score without drug: 0.51; Call: inactive

With Irgm2, what does the deposit list?
combined z-score class: no change with or without drug; viability z-score with doxorubicin: -0.22; viability z-score without drug: -0.84; Call: inactive

For Rnf214, how do the results read?
combined z-score class: no change with or without drug; viability z-score with doxorubicin: 0.45; viability z-score without drug: 0.67; Call: inactive

For Kcnq2, what was measured?
combined z-score class: no change with or without drug; viability z-score with doxorubicin: 1.01; viability z-score without drug: -0.17; Call: inactive

With Cct8l1, how do the results read?
combined z-score class: no change with or without drug; viability z-score with doxorubicin: -0.34; viability z-score without drug: -1.18; Call: inactive

With Ccdc74a, what was measured?
combined z-score class: no change with or without drug; viability z-score with doxorubicin: 0.45; viability z-score without drug: 0; Call: inactive

What is on record for 2410137M14Rik?
combined z-score class: no change with or without drug; viability z-score with doxorubicin: 0.67; viability z-score without drug: 1.52; Call: inactive

Which result is listed for Wnt8b?
combined z-score class: no change with or without drug; viability z-score with doxorubicin: 0.67; viability z-score without drug: 0.34; Call: inactive

What did the screen give for St3gal5?
combined z-score class: no change with or without drug; viability z-score with doxorubicin: -0.56; viability z-score without drug: 1.52; Call: inactive

For Gpr173, what does the deposit list?
combined z-score class: no change with or without drug; viability z-score with doxorubicin: 0.45; viability z-score without drug: -1.18; Call: inactive

Which result is listed for Gpr173?
combined z-score class: no change with or without drug; viability z-score with doxorubicin: -1.35; viability z-score without drug: -0.67; Call: inactive

What did the screen give for Spns1?
combined z-score class: no change with or without drug; viability z-score with doxorubicin: 0.34; viability z-score without drug: 0.17; Call: inactive

How did the screen score Hypk?
combined z-score class: no change with or without drug; viability z-score with doxorubicin: 0.9; viability z-score without drug: 1.18; Call: inactive

What did the screen give for Vmn1r87?
combined z-score class: no change with or without drug; viability z-score with doxorubicin: 0.67; viability z-score without drug: 0.51; Call: inactive

What did the screen give for Aen?
combined z-score class: no change with or without drug; viability z-score with doxorubicin: -0.9; viability z-score without drug: -0.84; Call: inactive

Which result is listed for Ssr4?
combined z-score class: no change with or without drug; viability z-score with doxorubicin: -1.01; viability z-score without drug: -1.01; Call: inactive

With Or7d9, how do the results read?
combined z-score class: no change with or without drug; viability z-score with doxorubicin: -1.57; viability z-score without drug: -1.35; Call: inactive

Which result is listed for Or6d12?
combined z-score class: no change with or without drug; viability z-score with doxorubicin: 0.22; viability z-score without drug: 0.34; Call: inactive

For Potefam1, what was measured?
combined z-score class: no change with or without drug; viability z-score with doxorubicin: -0.45; viability z-score without drug: 1.35; Call: inactive
